Results published in publication doi:10.1101/2023.10.30.563552.
No constants are given. Whether binding was seen depends on the method and setting. Binding seen in cells or lysates may run through a third protein. Some binding calls cover weakened binding; strength is not graded here.

Sequences of proteins named here, by UniProt entry; tags and fusion partners are left off.
UniProt Q13547: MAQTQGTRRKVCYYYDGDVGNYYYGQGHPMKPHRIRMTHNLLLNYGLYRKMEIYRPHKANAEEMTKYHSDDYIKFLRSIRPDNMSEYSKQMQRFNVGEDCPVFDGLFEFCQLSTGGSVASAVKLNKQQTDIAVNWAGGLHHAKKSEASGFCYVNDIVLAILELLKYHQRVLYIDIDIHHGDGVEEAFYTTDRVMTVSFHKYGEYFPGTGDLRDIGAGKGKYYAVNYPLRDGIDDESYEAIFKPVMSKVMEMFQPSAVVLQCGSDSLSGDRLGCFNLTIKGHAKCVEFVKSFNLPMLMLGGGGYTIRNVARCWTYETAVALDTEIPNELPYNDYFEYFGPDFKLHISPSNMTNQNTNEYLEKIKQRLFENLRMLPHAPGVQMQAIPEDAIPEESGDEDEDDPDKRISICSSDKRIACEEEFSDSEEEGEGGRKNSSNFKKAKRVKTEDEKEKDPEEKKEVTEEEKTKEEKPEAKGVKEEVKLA

Biological target: T1, JUNB (human (endogenous in CAPAN1 and CAPAN2)) (UniProt P17275)
T1 sequence: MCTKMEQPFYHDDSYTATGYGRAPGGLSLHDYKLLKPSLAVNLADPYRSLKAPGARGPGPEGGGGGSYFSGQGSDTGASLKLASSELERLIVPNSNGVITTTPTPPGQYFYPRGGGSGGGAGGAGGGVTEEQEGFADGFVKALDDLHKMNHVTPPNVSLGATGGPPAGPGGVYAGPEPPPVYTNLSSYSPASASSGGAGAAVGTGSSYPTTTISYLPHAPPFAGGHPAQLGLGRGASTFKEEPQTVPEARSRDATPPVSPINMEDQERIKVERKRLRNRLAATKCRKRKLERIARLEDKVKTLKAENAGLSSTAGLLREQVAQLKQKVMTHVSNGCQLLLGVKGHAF
Test: co-IP

binding: binds
Substance: HDAC1 (from UniProt Q13547 1-482)
